Laboratory results as given in paper PMC2613889.
No constants are given. Whether binding was seen depends on the method and setting. Binding seen in cells or lysates may run through a third protein. Some entries that bind do so weakly or less than the wild type.

Amino acid sequences for entries named in this document (tags omitted).
UniProt O75626: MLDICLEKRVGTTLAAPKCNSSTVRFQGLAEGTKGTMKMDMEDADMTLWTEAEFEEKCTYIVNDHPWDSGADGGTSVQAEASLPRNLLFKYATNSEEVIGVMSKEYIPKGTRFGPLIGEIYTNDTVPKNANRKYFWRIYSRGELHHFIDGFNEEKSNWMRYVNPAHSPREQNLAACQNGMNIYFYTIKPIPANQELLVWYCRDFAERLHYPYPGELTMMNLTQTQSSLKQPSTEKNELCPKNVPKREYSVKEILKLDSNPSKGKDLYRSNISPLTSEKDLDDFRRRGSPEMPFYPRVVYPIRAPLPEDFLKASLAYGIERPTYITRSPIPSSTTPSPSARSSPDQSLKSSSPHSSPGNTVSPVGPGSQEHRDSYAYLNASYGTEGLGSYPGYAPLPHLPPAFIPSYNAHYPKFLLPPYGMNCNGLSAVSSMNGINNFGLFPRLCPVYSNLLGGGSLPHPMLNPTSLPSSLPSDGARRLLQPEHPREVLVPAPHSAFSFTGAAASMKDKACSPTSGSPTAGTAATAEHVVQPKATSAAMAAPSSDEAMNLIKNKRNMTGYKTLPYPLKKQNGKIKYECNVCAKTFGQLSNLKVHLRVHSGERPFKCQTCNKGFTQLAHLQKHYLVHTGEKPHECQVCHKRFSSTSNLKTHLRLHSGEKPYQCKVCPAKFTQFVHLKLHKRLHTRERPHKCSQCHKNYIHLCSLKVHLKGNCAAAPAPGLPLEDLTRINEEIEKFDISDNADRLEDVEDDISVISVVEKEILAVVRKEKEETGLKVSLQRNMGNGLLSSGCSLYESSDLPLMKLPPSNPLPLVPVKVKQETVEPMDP

Biological target: T1, PRMT7 (human (endogenous in TCam-2)) (UniProt Q9NVM4)
T1 sequence: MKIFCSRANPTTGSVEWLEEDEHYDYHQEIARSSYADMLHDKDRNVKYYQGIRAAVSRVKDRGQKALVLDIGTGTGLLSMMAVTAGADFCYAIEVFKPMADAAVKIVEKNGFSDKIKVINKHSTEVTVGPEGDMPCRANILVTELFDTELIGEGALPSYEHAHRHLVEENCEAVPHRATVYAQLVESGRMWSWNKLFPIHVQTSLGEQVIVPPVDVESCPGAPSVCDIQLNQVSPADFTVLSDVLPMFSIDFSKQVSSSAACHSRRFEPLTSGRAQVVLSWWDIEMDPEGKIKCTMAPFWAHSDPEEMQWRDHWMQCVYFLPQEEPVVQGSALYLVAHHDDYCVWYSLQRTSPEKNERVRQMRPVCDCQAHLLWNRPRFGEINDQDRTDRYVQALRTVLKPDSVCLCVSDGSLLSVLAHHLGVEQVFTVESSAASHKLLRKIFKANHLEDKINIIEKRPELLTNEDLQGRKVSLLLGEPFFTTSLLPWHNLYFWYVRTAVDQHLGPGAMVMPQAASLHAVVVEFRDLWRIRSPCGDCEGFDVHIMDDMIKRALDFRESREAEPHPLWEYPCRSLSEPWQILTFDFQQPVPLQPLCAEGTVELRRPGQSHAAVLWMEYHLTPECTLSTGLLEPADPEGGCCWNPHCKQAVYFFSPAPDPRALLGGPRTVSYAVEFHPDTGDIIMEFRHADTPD
Assay: co-IP; extracts from TCam-2 cells; Dynabeads; immunoprecipitation with anti-PRMT5 (1,5 ug) or anti-PRMT7 antibody, Western blot with anti-BLIMP1 antibody; no-antibody control

binding: binds
Substance: BLIMP1 (B-Lymphocyte induced maturation protein-1; PRDM1) (from UniProt O75626 1-825)
